Experimental data taken from patent US7087634B2, “Cyclic AMP-specific phosphodiesterase inhibitors” (ICOS Corporation, priority 1999, dated 2006).
At least one compound was matched to its structure with a doubt left.

Experiment: Combined mouse locomotor activity assay (sedative / CNS side-effect scoring)
Format: in vivo
Parameters: key to the marks not given beside the values
Conditions: female Balb/c mice, i.p., 100 mg/kg
Experimental: The purpose of this study was to determine the efficacy of PDE4 inhibitors in vivo in an LPS mouse model together with a determination with respect to central nervous system (CNS) side-effects manifested by a decrease in spontaneous mobility.
The test animals were female Balb/c mice, having an average weight of about 20 g. The PDE4 inhibitors, formulated in 30% Cremophor® EL, were administered via intraperitoneal (i.p.) injections at doses of 0.1, 1.0, 10.0, and 100 mg/kg. Individual dose volumes (about 150 μL) were adjusted based on the body weights measured. One hour later, 5 mg/kg LPS in a final volume of 200 μL was injected via the tail vein to each animal. Ninety minutes following the LPS treatment, the animals were bled and serum samples were collected before being stored at −70° C. until assayed.
For side-effect profiling, a subjective visual scoring system was utilized at 5 min and 20 min after administration of PDE4 inhibitors. […] In this instance, the subjects could be monitored continuously over pre-set intervals.
Movement of the X-Y plane, or rearing up on the hind legs, was quantified by counting the number of “light-beam” crosses per unit of time. […] The quantitative scoring correlated well with the subjective measurements described above.

COC(=O)N1C[C@@H](c2ccc(OC)c(OC3CCCC3)c2)[C@](C)(C(C)=O)C1 (relative stereo) [Comparative Example, trans-3-(3-cyclopentoxy-4-methoxyphenyl)-1-methoxycarbonyl-4-methyi-4-(methylcarbonyi)pyrrolidine]
Sedative Effect: +++
